Source: PubChem BioAssay AID1259308 (NCATS, 2017)

Screen: 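Knock-downs that increase output of a recombinant reporter protein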 (primary screen)
Cell system: human HEK293 embryonic kidney cells stably expressing firefly luciferase (HEK-CMV-Luc2-Hygro)
Reagent: single siRNA against human genes, 0.8 pmol siRNA per well
Duration: 72 h
Read-out: 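Reporter luminescence and viable-cell signal on separate replicate plates, given as percent of non-targeting control and median/MAD z-scores, plus per-cell luciferase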
Direction: total luciferase, z-score and total luciferase, % of control: higher = more reporter protein produced; luciferase per cell, z-score: higher = more reporter output per viable cell; viable cells, % of control: higher = more viable cells
Rule for the call: 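An siRNA counts as active if its total luciferase robust z-score exceeds 3; genes with two or more such siRNAs out of three were retested with fresh siRNAs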
Calls: active = raised luciferase; inactive = no rise
Shown is a random part of about 59,000 reagents. In the full data, about 1,510 (2.6%) are marked active. 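Calls use total luciferase alone and ignore viability, so some active siRNAs may act by altering cell number.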 Reagents against one gene are numbered here. No sequences are given here.

target gene	reagent	total luciferase, z-score	total luciferase, % of control	luciferase per cell, z-score	viable cells, % of control	activity call
PI4KB (phosphatidylinositol 4-kinase beta)	1	-1.14	59.1	-0.995	85.9	inactive
PI4KB (phosphatidylinositol 4-kinase beta)	2	-0.495	72	-0.133	83.4	inactive
PI4KB (phosphatidylinositol 4-kinase beta)	3	2.79	137	1.51	103	inactive
TIMP2 (TIMP metallopeptidase inhibitor 2)	1	0.131	84.5	0.163	90.5	inactive
TIMP2 (TIMP metallopeptidase inhibitor 2)	2	-0.982	62.4	-1.48	103	inactive
TIMP2 (TIMP metallopeptidase inhibitor 2)	3	-1.25	57.1	-1.55	95.8	inactive
PGBD1 (piggyBac transposable element derived 1)	1	0.582	93.5	-0.00999	105	inactive
PGBD1 (piggyBac transposable element derived 1)	2	-0.664	68.7	-0.115	79.1	inactive
PGBD1 (piggyBac transposable element derived 1)	3	0.342	88.7	0.138	95.6	inactive
CSDE1 (cold shock domain containing E1)	1	0	81.9	-0.584	107	inactive
CSDE1 (cold shock domain containing E1)	2	-1.02	61.5	-1.07	91	inactive
CSDE1 (cold shock domain containing E1)	3	3.41	150	2.1	96.2	active
RRP15 (ribosomal RNA processing 15 homolog)	1	-0.848	65	-0.67	86.7	inactive
RRP15 (ribosomal RNA processing 15 homolog)	2	-0.6	70	-0.0207	78.6	inactive
RRP15 (ribosomal RNA processing 15 homolog)	3	-0.507	71.8	0.0833	78.5	inactive
ACSF3 (acyl-CoA synthetase family member 3)	1	0.645	94.7	0.342	96.7	inactive
ACSF3 (acyl-CoA synthetase family member 3)	2	0.375	89.3	0.285	92.6	inactive
ACSF3 (acyl-CoA synthetase family member 3)	3	0.63	94.4	0.0454	104	inactive
BRD8 (bromodomain containing 8)	1	-0.214	77.6	-0.132	89.8	inactive
BRD8 (bromodomain containing 8)	2	-1.12	59.7	-0.762	81.5	inactive
BRD8 (bromodomain containing 8)	3	0.631	94.4	0.122	102	inactive
MOCS2 (molybdenum cofactor synthesis 2)	1	0.2	85.9	1.18	70.4	inactive
MOCS2 (molybdenum cofactor synthesis 2)	2	0.316	88.2	0.923	77.3	inactive
MOCS2 (molybdenum cofactor synthesis 2)	3	-0.431	73.3	-0.97	106	inactive
